Measurements as given in PMC12623720.
Results are given in words; binding and its absence hold for the method and conditions named.

Sequences of proteins named here, by UniProt entry; tags and fusion partners are left off. A change or cut given only in a name is not applied to a line headed by its entry. Residues count along the entry.
UniProt Q8NAU1: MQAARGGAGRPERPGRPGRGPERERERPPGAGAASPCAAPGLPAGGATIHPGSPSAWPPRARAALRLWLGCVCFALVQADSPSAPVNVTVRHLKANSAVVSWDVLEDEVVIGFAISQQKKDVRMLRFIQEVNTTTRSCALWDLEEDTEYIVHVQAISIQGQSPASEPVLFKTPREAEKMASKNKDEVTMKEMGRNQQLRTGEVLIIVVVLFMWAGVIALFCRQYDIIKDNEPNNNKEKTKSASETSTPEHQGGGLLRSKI
UniProt P02768, residues 25-609: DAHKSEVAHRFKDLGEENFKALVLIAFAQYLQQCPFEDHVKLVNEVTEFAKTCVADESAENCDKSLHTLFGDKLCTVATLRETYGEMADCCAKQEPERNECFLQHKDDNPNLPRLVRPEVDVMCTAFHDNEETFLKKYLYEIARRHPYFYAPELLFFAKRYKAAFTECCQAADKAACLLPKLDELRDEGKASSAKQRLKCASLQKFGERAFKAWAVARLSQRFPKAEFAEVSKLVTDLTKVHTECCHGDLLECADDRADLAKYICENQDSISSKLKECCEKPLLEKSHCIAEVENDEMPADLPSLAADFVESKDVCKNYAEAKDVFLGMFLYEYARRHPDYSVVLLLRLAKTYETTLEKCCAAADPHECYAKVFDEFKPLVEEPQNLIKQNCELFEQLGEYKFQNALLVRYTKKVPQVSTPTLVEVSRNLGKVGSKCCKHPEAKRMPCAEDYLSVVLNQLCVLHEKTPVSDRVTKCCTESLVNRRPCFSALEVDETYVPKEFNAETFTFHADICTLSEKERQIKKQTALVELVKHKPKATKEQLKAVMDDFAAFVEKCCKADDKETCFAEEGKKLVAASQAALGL

Target: Irisin (UniProt Q8NAU1)
Assay: pull-down; His-tagged Irisin or ABD-Irisin (1 mL, 100 ng/mL in PBST) immobilised on 20 uL Ni-NTA magnetic beads, 4 °C, 2 h; beads then incubated with HSA (100 ng/mL) for 6 h; eluted in SDS-PAGE loading buffer; HSA detected by Western blot; both purified

human serum albumin (from UniProt P02768 25-609)
binding: no binding (tested: 100 ng/mL)
